Some of the results follow.

By UniProt entry, the sequences of proteins in these tests, tags left out.
UniProt Q0JBA9, entry or part of it: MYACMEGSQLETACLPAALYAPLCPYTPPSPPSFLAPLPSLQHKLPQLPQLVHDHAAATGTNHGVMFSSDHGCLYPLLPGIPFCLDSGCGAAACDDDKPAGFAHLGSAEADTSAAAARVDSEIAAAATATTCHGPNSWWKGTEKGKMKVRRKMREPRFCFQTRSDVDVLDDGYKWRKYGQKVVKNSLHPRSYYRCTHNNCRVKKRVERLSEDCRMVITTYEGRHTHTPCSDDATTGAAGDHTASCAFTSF

The target of the test is OsWRKY34 (Oryza sativa, UniProt Q0JBA9 1-250). Put plainly: protein-binding microarray (RPBM); PBS, 2% BSA, 51.3 ng/ul salmon testes DNA, 50 uM zinc acetate, 200 nM TF, 25 C, 1 h; high values mean tight binding. The conditions noted are these: protein: recombinant; tags: N-terminal polyhistidine and DsRed monomer fusion (pET32a); label: CyDye5-dUTP incorporated in the synthesized complementary strand; 3' TTTTT single-stranded linker to array surface; dsDNA, one strand shown. Summed up:
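The binding signal for each feature is its fluorescence intensity in arbitrary units. An Axon 4000B scanner was used to read a custom Agilent array that had been made double-stranded with Cy5-dUTP primer extension, blocked with 2% BSA, incubated at 25 °C for 1 h with 200 nM protein in PBS, 2% BSA, salmon testes DNA and 50 µM zinc acetate, and washed. The protein was an N-terminal polyhistidine–DsRed transcription factor fusion from E. coli BL21-CodonPlus, purified on Ni–NTA.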
For “GTACTAAGTGGCTCGCGTCGATTCCCTTGCAACGCTGCAACGGAGTCACCTAGTGCAG”, the binding signal was 8690 fluorescence intensity (a.u.). In the case of “TCCCTCTCGCTCGCATTGCCATCCACCAAAGCCAAGAGCACGGAGTCACCTAGTGCAG” it was 8110 fluorescence intensity (a.u.); in that of “CGTGCTCGTTTACTCCTCCGTCGATTTCCACTTTCGCCAACGGAGTCACCTAGTGCAG”, 8120 fluorescence intensity (a.u.). Regarding “TTTAGTACGTGTTTGACCATTCGTCTTATTAAAAAAATTTCGGAGTCACCTAGTGCAG”, the binding signal was 9130 fluorescence intensity (a.u.).

As to “TGGTCCCATGTTGCAGTCCTTTTTAGTGTGACTGCATTCCCGGAGTCACCTAGTGCAG”, the binding signal was 10200 fluorescence intensity (a.u.).

In the case of “GTGGGTTTGAGGGCGGCCTCCTCCCTCTAGCTGGGAGGGGCGGAGTCACCTAGTGCAG”, the binding signal is 9820 fluorescence intensity (a.u.). Under “ACTGTGGTGATGGTGTCTTTTGTTTGTCTTCTGAATTCAGCGGAGTCACCTAGTGCAG” stands 12600 fluorescence intensity (a.u.); under “AGCAGCTTTTTTTTTTCAATGCACGGTATATTCATCAGCTCGGAGTCACCTAGTGCAG”, 9880 fluorescence intensity (a.u.).

For the sequence “ATCTCGTATTGGGTTCTTATATGGACTTTTTTCTCAATATCGGAGTCACCTAGTGCAG”, the binding signal was 10300 fluorescence intensity (a.u.). Under “ACGCCATTGTTTACGGCCAGTTAGCAACACATCGCAATCTCGGAGTCACCTAGTGCAG” stands 8680 fluorescence intensity (a.u.); under “AGCTGGTTGGCGATTTTACTTTACAGTTCACACTTTTATTCGGAGTCACCTAGTGCAG”, 9160 fluorescence intensity (a.u.); under “GTACTGTCACTTTGTCTTCCCCTACGCCACTTCCCACTGACGGAGTCACCTAGTGCAG”, 10600 fluorescence intensity (a.u.).

With “ACATCGTCGTCGCCACCACCCACGCCAACCTCGCATCTCTCGGAGTCACCTAGTGCAG”, the binding signal is 11300 fluorescence intensity (a.u.). On to “ATGCCATTTTTCCCGTTTGTTGCAATTGCAAAACATTTTTCGGAGTCACCTAGTGCAG”, for which the binding signal is 8580 fluorescence intensity (a.u.). Consider “ATACGCTTCCTGTTACTTTCATATGTAGTTACTCTTTGTTCGGAGTCACCTAGTGCAG”, for which the binding signal is 10400 fluorescence intensity (a.u.). For the sequence “CAACACGACGACCACCACCACATTTGTCCCAACACACCACCGGAGTCACCTAGTGCAG”, the binding signal was 9280 fluorescence intensity (a.u.). In the case of “GTGGTGGGTATGTTGGCGTTATGATTCGATGCCCCTGAACCGGAGTCACCTAGTGCAG” it was 10400 fluorescence intensity (a.u.); in that of “CGCAATCACCGTCCACCTGCCTCGCCGCGCGCCACGCGCGCGGAGTCACCTAGTGCAG”, 10500 fluorescence intensity (a.u.); in that of “ACGTTAGTTAAAAAGTCAACGGCGTCATCCATTAAAATACCGGAGTCACCTAGTGCAG”, 8900 fluorescence intensity (a.u.). “TCCACTGCCGTTCCTGTCGATCCGATTCACTTCAGCCTCACGGAGTCACCTAGTGCAG”: the binding signal was 10600 fluorescence intensity (a.u.). On to “TCAGGAGGGGTGGAGCTGGAGCTGGAGCTGTGCCAAACAGCGGAGTCACCTAGTGCAG”, for which the binding signal was 10600 fluorescence intensity (a.u.).

“CTCTCTCCGTACTCGCGAAGCCACGCTCCGGGCCGTTGTCCGGAGTCACCTAGTGCAG”: the binding signal is 8960 fluorescence intensity (a.u.). On to “ACCTCGGTAATAAAAGATGATCTAACGTAAAATTTATTATCGGAGTCACCTAGTGCAG”, for which the binding signal is 23300 fluorescence intensity (a.u.). Under “CTCTCCACCACCGCCGCGCCGCCGCACCATCCTCCTCTCTCGGAGTCACCTAGTGCAG” stands 9260 fluorescence intensity (a.u.); under “CTCTCTTTGTTGTATGTTACTAGTAGGTTGGATGAATATTCGGAGTCACCTAGTGCAG”, 8570 fluorescence intensity (a.u.); under “ACAGCAATACCCAAACTATACGCTCCATACATCTGCCAGTCGGAGTCACCTAGTGCAG”, 8860 fluorescence intensity (a.u.).

Consider “GCCGAGGTGGAAGGCGACTCGATGGATGGGGTGGGGACTGCGGAGTCACCTAGTGCAG”, for which the binding signal is 13700 fluorescence intensity (a.u.). In the case of “TCTATCTATCACTTTTACAATATTTAACATATACTTATCACGGAGTCACCTAGTGCAG” it was 8960 fluorescence intensity (a.u.); in that of “CTTTGGGCCGGGATGACACACTAAACCAAGTTTAAGGATCCGGAGTCACCTAGTGCAG”, 8480 fluorescence intensity (a.u.). In the case of “GATGTCTGTTTCGTACCCGGTTGTCTATGTGAGCCCTTATCGGAGTCACCTAGTGCAG”, the binding signal is 9000 fluorescence intensity (a.u.).

For “TCTTTAGCATGATACTTACTTTGATTGCCAGCTGCACTCTCGGAGTCACCTAGTGCAG”, the binding signal is 8620 fluorescence intensity (a.u.). “ATCGCAACAAACGACTCCCAGCTGCAGCCGTTTCCATCACCGGAGTCACCTAGTGCAG”: the binding signal was 8490 fluorescence intensity (a.u.). Consider “GGGGAGGCGAGGCGGCGAGGTTATAAAAACGGTGGGGTGGCGGAGTCACCTAGTGCAG”, for which the binding signal was 12200 fluorescence intensity (a.u.).

Regarding “AGTTTGATTTGTTATTTTTGTTACAACTTGTAGAATTTGACGGAGTCACCTAGTGCAG”, the binding signal is 8580 fluorescence intensity (a.u.).

For the sequence “GCGGAGGTGGTGGTGGTGCGGGAGTAGGGAGGCGGGCGAACGGAGTCACCTAGTGCAG”, the binding signal is 13800 fluorescence intensity (a.u.).

Regarding “TCTATCTGCCTGACTATCTCTATCTCGATCTCGTCCAGGACGGAGTCACCTAGTGCAG”, the binding signal was 9860 fluorescence intensity (a.u.).

In the case of “ACTCTTATTTTAATATTTCTTATTTTTAATTCCTAATTTTCGGAGTCACCTAGTGCAG”, the binding signal is 9760 fluorescence intensity (a.u.).

Take “CTTCTTCCTAGCATTCCTTATGCTGCGTGATTCATATATACGGAGTCACCTAGTGCAG”: the binding signal is 9380 fluorescence intensity (a.u.). Under “AGTGGGTGAGGGTTGTAGAGGAAGGCATGCGAAGGAAAATCGGAGTCACCTAGTGCAG” stands 8610 fluorescence intensity (a.u.); under “GTTTTGCCGTTTTGCTGTGGTGCACAAAAGAACTTGTTCACGGAGTCACCTAGTGCAG”, 8740 fluorescence intensity (a.u.). Take “AATTTCACCTGTACAAAACATTTGCCTCAATGTCTGTTTTCGGAGTCACCTAGTGCAG”: the binding signal is 12700 fluorescence intensity (a.u.).

Turning to “TGTGTCTCTTCTTTTTTCGCGAACGCGTAAAATTTGTGTCCGGAGTCACCTAGTGCAG”, the binding signal is 10100 fluorescence intensity (a.u.).

The record behind these values is PMC7819943, “Rice protein-binding microarrays: a tool to detect cis-acting elements near promoter regions in rice”.
